# These are yes or no findings as the source states them, for the method shown. Binding seen in cells or lysates may run through a third protein. Some binding calls cover weakened binding; strength is not graded here.
# By UniProt entry, the sequences of proteins in these tests, tags left out.
# UniProt Q56B11: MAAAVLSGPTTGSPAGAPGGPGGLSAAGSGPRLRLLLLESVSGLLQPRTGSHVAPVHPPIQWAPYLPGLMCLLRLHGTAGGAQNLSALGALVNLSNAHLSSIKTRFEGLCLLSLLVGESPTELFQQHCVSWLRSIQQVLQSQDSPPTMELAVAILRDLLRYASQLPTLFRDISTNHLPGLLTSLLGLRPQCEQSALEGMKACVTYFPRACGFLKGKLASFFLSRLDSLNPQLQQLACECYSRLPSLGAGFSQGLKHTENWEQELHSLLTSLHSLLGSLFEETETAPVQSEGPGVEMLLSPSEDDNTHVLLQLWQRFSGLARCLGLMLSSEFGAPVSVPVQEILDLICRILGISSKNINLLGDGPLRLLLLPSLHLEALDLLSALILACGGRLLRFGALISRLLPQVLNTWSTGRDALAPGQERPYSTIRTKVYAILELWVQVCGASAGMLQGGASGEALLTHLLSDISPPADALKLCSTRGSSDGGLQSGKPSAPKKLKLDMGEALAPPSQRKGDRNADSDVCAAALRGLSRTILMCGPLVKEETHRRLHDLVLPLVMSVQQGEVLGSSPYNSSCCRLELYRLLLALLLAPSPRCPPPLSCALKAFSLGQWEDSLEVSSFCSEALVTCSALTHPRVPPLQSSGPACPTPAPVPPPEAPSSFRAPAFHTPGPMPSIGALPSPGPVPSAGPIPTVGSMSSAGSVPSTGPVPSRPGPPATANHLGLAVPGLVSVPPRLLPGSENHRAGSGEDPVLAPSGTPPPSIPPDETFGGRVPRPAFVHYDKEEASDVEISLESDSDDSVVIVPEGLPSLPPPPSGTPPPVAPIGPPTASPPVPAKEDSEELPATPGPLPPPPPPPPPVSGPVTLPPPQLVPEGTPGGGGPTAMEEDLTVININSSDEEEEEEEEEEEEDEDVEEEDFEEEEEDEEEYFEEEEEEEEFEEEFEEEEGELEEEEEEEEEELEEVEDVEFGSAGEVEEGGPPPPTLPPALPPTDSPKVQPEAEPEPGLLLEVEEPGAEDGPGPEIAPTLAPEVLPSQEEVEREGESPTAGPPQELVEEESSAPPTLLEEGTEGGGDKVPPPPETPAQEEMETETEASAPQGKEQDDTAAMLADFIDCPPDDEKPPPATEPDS
# UniProt P15205: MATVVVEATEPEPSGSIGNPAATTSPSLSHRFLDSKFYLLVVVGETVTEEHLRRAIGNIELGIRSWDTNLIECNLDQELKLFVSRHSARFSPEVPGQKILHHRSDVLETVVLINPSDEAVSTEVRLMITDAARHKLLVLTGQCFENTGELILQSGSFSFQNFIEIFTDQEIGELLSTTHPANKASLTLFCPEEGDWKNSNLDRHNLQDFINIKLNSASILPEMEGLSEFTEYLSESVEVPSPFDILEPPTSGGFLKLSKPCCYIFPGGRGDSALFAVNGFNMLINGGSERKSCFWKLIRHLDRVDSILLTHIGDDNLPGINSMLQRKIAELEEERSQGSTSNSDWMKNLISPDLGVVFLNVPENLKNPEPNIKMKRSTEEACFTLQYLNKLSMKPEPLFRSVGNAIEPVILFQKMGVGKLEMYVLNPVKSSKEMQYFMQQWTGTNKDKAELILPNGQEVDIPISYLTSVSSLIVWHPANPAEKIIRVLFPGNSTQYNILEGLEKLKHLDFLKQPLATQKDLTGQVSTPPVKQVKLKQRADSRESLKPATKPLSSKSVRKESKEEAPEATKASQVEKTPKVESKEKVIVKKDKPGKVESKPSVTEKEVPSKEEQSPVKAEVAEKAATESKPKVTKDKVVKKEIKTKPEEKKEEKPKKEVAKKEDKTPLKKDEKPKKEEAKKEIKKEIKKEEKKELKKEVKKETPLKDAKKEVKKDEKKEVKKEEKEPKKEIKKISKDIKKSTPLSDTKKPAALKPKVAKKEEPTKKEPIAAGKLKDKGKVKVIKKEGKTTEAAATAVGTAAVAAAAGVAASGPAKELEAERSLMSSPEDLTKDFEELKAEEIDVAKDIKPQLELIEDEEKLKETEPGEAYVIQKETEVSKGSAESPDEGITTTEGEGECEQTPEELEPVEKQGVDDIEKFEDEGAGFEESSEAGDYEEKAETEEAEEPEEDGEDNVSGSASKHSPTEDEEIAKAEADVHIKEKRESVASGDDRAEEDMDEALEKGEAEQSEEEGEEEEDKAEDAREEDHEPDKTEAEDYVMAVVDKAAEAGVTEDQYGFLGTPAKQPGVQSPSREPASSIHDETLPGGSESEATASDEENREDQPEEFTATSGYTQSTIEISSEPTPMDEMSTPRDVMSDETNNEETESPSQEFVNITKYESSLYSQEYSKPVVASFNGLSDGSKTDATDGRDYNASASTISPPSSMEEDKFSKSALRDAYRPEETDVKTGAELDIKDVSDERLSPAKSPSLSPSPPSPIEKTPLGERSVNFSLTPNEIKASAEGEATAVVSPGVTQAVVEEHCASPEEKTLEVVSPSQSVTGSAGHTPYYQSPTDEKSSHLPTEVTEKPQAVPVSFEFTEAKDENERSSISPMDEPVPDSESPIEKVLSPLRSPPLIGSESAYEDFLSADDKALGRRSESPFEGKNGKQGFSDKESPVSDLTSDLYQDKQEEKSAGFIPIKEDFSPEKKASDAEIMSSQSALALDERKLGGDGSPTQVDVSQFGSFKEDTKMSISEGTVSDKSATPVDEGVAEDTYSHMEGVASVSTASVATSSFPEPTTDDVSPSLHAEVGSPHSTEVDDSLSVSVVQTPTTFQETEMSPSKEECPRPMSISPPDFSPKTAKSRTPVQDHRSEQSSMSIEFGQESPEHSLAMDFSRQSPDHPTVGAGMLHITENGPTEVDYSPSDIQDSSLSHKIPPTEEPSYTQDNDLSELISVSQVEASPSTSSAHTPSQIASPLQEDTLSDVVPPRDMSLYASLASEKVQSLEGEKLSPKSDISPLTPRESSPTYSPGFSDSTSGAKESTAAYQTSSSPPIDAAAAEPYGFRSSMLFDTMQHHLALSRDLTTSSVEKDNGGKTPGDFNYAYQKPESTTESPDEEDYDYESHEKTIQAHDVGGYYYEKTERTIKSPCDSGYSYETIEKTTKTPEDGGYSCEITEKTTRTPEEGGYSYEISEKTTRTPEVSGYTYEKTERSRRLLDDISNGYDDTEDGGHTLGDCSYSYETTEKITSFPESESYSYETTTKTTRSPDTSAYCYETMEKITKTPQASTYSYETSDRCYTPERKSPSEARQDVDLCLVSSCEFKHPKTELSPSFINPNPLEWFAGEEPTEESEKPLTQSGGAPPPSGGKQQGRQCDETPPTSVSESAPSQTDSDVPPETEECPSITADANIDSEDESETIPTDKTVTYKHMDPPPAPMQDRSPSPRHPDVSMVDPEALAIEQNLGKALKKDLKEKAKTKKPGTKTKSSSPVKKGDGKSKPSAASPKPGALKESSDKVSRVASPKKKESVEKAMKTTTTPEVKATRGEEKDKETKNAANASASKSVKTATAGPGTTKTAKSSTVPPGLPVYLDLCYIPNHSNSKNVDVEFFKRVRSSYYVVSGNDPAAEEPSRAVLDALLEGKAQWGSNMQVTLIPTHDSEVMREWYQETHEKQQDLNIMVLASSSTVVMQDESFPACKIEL
# T1: translation initiation factor eIF5b (rat (endogenous in Wistar rat cortex)) (UniProt B2GUV7)
# T1 sequence: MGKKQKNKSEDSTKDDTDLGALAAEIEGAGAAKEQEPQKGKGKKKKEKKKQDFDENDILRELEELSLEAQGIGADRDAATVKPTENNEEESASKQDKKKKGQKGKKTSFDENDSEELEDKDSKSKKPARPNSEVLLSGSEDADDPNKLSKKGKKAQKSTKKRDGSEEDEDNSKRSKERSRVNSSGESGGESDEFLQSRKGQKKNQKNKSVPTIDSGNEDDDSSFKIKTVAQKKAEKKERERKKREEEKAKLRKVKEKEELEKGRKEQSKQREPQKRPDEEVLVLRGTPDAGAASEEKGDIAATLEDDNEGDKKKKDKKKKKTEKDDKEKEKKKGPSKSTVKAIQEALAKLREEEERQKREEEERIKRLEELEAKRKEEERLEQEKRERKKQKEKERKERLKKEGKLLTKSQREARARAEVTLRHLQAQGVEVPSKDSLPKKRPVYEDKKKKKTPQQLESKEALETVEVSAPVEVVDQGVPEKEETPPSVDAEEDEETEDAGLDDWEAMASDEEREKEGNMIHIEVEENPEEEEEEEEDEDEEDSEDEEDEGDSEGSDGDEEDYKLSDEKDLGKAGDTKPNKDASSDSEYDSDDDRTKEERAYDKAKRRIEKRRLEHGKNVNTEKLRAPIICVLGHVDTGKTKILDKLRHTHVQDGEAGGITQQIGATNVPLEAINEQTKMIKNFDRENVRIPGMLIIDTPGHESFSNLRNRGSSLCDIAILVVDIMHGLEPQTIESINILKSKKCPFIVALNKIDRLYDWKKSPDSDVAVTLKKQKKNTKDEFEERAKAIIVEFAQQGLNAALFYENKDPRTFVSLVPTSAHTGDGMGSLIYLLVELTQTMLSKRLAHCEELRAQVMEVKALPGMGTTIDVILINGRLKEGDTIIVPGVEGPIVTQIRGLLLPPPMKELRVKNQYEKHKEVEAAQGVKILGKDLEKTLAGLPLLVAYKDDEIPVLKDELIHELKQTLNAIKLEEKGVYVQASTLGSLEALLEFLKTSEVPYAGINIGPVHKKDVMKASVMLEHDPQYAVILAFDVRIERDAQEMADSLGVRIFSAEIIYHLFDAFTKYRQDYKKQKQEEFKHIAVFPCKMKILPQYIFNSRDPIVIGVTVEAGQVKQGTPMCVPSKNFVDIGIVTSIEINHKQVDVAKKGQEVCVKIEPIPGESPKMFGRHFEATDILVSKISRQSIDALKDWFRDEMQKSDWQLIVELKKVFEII
# What was measured:
# [1] = biological target: T1, translation initiation factor eIF5b (rat (endogenous in Wistar rat cortex)); test: cross-linking
# [2] = biological target: Proline-, glutamic acid- and leucine-rich protein 1 (PELP1) (rat (endogenous in Wistar rat cortex)) (UniProt Q56B11); test: cross-linking
binding [1],binding [2],Molecule
binds,–,microtubule associated protein Map1b (from UniProt P15205 1-2461)
–,binds,"Caprin-1 (protein, UniProt Q5M9G3 1-707) MPSATSHSGSGSKSSGPPPPSGSSGSEAAAGAAAPASQHPATGTGAVQTEAMKQILGVIDKKLRNLEKKKGKLDDYQERMNKGERLNQDQLDAVSKYQEVTNNLEFAKELQRSFMALSQDIQKTIKKTARREQLMREEAEQKRLKTVLELQYVLDKLGDDDVRTDLKQGLSGVPILSEEELSLLDEFYKLVDPERDMSLRLNEQYEHASIHLWDLLEGKEKPVCGTTYKALKEIVERVFQSNYFDSTHNHQNGLCEEEEAASAPIVEDQVAEAEPEPTEEYTEQSEVESTEYVNRQFMAETQFSSGEKEQVDEWAVETVEVVNSLQQQPQAASPSVPEPHSLTPVAQSDPLVRRQRVQDLMAQMQGPYNFIQDSMLDFENQTLDPAIVSAQPMNPTQNMDMPQLVCPQVHSESRLAQSNQVPVQPEATQVPLVSSTSEGYTASQPLYQPSHAAEQRPQKEPIDQIQATISLNTEQTTASSSLPAASQPQVFQAGASKPLHSSGINVNAAPFQSMQTVFNMNAPVPPVNEPETLKQQSQYQASYNQSFSSQPHQVEQTELQQDQLQTVVGTYHGSQDQPHQVPGNHQQPPQQSTGFPRSSQPYYNSRGVSRGGSRGARGLMNGYRGPANGFRGGYDGYRSSFSNTPNSGYTQSQFNAPRDYSGYQRDGYQQNFKRGSGQSGPRGAPRGRGGPPRPNRGMPQMNTQQVN"
